Source: the supplement of paper PMC10849652
This is one part of the list.

Amino acid sequences for entries named in this document (tags omitted). A change or cut given only in a name is not applied to a line headed by its entry.
UniProt Q92611: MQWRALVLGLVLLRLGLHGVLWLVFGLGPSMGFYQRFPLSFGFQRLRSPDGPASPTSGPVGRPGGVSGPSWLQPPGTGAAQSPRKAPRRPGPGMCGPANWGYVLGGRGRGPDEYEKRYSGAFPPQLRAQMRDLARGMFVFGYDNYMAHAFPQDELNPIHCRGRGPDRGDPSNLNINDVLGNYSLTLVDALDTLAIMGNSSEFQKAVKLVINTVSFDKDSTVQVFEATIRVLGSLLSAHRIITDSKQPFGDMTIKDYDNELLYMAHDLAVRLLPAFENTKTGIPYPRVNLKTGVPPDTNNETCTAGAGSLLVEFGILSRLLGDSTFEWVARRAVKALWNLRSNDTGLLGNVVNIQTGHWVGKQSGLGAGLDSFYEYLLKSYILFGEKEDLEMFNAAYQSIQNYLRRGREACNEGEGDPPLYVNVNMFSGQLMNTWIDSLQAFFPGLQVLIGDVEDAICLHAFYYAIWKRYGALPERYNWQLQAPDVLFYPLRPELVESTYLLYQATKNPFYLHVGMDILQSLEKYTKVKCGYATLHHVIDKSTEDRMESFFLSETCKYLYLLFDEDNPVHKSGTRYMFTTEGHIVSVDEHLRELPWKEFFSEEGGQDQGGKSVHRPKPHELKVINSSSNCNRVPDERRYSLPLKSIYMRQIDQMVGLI
UniProt Q15125: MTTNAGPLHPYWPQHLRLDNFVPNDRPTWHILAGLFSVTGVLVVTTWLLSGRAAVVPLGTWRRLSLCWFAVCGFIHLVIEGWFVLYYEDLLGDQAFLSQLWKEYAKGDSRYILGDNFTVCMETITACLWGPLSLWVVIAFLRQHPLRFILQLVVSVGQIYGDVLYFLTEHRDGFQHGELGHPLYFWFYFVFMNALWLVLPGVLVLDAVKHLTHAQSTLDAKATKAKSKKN
UniProt P63167, whole entry, looked up: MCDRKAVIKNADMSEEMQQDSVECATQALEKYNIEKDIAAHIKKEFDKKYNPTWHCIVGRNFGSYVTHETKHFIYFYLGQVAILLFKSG
UniProt Q7L8W6: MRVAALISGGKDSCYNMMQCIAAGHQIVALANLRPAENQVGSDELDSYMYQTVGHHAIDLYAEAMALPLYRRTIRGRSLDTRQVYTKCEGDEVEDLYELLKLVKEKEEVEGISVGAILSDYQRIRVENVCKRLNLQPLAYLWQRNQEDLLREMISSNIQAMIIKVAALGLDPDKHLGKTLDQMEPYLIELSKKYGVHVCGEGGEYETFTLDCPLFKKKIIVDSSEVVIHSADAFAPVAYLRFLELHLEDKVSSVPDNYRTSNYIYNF
UniProt Q8WXX5: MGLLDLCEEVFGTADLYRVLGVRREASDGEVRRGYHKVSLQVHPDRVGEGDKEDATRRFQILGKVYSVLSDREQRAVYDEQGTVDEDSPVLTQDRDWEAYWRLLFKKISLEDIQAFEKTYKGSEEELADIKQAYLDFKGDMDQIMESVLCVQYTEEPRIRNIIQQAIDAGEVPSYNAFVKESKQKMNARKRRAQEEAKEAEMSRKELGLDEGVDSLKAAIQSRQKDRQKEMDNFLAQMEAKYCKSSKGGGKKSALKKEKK
UniProt O00429, whole entry, looked up: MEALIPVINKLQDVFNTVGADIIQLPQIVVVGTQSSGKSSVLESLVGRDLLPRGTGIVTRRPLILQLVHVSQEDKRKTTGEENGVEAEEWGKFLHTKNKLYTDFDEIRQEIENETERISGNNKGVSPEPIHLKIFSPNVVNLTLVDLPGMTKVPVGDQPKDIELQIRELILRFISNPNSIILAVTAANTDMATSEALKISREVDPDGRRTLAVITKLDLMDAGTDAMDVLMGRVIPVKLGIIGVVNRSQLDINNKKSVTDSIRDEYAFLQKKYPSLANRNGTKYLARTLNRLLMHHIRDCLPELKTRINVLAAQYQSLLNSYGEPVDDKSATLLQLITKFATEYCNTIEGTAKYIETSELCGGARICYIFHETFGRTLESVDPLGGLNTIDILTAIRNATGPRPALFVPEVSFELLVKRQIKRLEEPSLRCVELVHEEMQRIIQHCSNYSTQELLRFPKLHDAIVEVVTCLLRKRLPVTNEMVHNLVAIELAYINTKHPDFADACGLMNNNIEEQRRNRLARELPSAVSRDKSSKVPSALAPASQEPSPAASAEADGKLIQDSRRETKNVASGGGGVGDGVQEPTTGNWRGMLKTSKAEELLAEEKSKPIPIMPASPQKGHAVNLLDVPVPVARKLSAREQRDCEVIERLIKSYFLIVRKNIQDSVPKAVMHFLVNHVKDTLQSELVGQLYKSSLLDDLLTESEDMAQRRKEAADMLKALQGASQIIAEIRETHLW
UniProt Q9UDY4: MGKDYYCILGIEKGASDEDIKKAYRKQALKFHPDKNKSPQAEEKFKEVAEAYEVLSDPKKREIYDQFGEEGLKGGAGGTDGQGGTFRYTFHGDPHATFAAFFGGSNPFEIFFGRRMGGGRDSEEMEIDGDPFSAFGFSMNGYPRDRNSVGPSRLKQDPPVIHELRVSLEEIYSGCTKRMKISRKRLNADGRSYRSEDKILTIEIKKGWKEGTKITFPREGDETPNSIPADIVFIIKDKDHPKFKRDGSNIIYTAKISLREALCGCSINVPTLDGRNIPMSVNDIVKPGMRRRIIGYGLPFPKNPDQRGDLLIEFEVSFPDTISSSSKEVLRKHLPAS
UniProt Q9NTX5: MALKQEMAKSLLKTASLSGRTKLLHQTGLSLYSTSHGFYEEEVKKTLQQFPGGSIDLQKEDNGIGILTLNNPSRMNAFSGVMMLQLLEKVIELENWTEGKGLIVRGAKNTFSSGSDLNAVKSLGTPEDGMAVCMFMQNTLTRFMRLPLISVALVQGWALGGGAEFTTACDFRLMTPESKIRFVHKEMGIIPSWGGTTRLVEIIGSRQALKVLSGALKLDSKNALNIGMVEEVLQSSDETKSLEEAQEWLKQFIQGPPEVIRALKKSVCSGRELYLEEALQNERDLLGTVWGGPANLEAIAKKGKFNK
UniProt O75190: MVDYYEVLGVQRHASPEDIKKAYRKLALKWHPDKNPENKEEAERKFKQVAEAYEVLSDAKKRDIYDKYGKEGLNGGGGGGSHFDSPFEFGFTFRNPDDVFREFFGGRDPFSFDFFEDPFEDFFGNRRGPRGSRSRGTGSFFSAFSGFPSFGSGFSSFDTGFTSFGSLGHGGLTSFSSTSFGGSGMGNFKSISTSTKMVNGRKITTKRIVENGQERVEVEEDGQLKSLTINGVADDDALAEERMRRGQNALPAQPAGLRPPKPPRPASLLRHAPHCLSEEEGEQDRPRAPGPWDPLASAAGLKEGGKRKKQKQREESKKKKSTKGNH
UniProt P51452: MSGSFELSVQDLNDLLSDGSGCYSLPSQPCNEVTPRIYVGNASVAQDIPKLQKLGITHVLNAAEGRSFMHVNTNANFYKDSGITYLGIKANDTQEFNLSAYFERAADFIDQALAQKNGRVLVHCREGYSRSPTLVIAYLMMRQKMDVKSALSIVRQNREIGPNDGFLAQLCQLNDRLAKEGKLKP
UniProt Q14126: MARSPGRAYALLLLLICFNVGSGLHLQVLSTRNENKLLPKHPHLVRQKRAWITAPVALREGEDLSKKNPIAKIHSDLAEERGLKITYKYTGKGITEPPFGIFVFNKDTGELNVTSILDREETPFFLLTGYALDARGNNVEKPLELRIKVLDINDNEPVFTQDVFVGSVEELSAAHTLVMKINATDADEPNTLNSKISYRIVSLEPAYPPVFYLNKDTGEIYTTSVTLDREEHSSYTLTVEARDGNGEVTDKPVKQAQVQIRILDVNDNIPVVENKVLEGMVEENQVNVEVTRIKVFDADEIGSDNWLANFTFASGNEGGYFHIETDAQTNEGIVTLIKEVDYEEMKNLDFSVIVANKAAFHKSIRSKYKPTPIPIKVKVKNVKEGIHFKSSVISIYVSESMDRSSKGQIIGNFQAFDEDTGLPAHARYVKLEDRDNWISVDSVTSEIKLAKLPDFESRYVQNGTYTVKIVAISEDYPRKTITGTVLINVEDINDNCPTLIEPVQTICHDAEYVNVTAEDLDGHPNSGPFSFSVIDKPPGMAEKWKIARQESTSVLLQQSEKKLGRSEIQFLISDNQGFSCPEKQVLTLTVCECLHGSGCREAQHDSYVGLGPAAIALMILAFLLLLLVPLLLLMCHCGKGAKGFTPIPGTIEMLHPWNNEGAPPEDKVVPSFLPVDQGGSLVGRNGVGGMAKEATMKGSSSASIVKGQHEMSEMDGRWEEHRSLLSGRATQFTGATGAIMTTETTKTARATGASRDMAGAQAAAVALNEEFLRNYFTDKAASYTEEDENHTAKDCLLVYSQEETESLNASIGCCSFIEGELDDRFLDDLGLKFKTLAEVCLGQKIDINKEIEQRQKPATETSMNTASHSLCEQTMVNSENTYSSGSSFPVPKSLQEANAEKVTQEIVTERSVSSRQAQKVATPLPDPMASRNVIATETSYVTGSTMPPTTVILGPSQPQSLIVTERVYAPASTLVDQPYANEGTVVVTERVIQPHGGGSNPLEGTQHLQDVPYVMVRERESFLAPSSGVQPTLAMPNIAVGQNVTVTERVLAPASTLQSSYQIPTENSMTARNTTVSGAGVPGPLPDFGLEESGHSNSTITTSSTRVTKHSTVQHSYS
UniProt P33316: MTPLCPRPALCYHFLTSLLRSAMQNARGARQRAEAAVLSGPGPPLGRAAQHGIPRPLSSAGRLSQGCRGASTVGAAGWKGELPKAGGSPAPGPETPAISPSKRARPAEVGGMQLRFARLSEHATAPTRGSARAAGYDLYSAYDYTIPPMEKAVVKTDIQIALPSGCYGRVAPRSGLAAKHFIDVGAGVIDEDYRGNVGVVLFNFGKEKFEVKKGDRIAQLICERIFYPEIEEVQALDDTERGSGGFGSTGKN
UniProt O43598: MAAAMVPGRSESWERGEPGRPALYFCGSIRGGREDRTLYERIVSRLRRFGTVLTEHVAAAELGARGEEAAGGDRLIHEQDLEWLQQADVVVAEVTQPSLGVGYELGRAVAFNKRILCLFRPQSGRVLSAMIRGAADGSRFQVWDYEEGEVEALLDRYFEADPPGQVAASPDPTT
UniProt Q7Z388: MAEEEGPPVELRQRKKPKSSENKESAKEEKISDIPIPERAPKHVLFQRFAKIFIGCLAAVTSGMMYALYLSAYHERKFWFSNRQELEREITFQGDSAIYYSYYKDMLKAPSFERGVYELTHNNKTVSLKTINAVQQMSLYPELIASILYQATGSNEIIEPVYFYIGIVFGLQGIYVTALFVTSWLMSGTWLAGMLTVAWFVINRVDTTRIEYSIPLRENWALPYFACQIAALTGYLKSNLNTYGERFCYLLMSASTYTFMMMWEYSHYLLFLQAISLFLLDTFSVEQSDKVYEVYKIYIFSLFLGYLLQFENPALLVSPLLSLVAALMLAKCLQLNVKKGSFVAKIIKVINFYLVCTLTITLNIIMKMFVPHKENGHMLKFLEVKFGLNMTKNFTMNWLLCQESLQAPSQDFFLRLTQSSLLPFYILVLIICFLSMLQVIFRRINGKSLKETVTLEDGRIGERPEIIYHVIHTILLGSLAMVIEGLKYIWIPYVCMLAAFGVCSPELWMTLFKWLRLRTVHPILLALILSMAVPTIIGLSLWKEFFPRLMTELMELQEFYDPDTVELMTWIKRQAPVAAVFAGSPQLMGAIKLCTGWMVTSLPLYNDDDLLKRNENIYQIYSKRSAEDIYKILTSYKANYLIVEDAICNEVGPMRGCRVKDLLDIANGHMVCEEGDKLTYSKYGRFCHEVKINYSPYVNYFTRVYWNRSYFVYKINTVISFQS
UniProt Q9BZQ6: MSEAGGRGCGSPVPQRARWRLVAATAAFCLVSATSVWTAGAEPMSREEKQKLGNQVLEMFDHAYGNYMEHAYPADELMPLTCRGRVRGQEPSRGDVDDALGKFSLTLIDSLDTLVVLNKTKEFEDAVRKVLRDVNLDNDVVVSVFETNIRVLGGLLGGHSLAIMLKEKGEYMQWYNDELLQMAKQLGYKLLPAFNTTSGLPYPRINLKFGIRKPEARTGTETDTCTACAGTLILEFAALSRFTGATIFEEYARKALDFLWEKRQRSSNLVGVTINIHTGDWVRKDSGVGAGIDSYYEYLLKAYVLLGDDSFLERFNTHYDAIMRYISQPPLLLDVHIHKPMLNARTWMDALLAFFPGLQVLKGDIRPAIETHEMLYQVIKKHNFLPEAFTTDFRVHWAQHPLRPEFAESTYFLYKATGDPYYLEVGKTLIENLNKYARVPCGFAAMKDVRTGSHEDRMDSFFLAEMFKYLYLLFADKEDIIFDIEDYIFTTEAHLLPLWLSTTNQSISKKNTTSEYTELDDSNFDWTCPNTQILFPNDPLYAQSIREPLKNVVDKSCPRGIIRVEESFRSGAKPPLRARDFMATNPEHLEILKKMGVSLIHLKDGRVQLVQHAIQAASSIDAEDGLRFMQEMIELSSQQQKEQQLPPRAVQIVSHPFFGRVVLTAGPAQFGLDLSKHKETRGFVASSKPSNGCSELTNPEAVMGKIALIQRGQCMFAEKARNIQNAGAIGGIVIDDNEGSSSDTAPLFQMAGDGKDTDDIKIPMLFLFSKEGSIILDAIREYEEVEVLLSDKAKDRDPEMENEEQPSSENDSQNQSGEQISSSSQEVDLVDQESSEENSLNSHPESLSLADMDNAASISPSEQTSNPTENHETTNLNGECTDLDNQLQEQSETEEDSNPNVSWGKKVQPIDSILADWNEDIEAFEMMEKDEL

Compound: CNCc1ccc(-c2[nH]c3cc(F)cc4c3c2CCNC4=O)cc1 [rucaparib]
Experiment: log2 fold change, soluble protein after heating vs DMSO (PISA); higher = thermal stabilisation; K562 cells, 10 uM, 30 min; active = over 0.2 and 3.5 SD of the protein, either way, in both replicates (recomputed)
Method in brief: (§1)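 K562 cells at 2×10^6 cells/mL were treated with 10 μM compound for 30 min. Aliquots were heated for 3 min across 48°C-58°C, pooled, and extracted in PBS with 0.5% NP-40 at 4°C; soluble protein was the supernatant after 21,000xg for 90 min. Soluble protein was quantified by TMTpro 16plex LC-MS/MS with channel sums equalised, and reported as log2 fold change in thermal stability against DMSO controls, with values from duplicates.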

Target | log2 fold change
EDEM1 (UniProt Q92611) | inactive: 0.083
EBP (UniProt Q15125) | inactive: 0.015
DYNLL1 (UniProt P63167) | inactive: 0.146
DPH6 (UniProt Q7L8W6) | inactive: 0.019
ECSIT (UniProt Q9BQ95) | inactive: -0.006
DNAJC9 (UniProt Q8WXX5) | inactive: -0.03
DNAJC2 (UniProt Q99543) | inactive: 0.223
ECI1 (UniProt P42126) | inactive: 0.009
DNM1L isoform 6 (UniProt O00429) | inactive: -0.014
DPF2 (UniProt Q92785) | inactive: 0.006
DNAJB4 (UniProt Q9UDY4) | inactive: 0.005
ECHDC1 (UniProt Q9NTX5) | inactive: -0.021
DTD1 (UniProt Q8TEA8) | inactive: -0.054
DR1 (UniProt Q01658) | inactive: -0.134
DPY30 (UniProt Q9C005) | inactive: -0.061
DNAJB6 (UniProt O75190) | inactive: -0.044
DOCK9 isoform 4 (UniProt Q9BZ29) | inactive: -0.009

Target | log2 fold change
DPP7 (UniProt Q9UHL4) | inactive: 0.024
DNASE2 (UniProt O00115) | inactive: 0.02
DUSP3 (UniProt P51452) | inactive: 0.004
DSG2 (UniProt Q14126) | inactive: -0.031
DNAJC17 (UniProt Q9NVM6) | inactive: -0.051
DPH2 (UniProt Q9BQC3) | inactive: -0.006
EBAG9 isoform 2 (UniProt O00559) | inactive: -0.098
DUT (UniProt P33316) | inactive: 0.045
DNPH1 (UniProt O43598) | inactive: 0.034
DPAGT1 (UniProt Q9H3H5) | inactive: -0.026
DPH1 (UniProt Q9BZG8) | inactive: 0
DOCK7 (UniProt Q96N67) | inactive: -0.034
DPY19L4 (UniProt Q7Z388) | inactive: 0.116
DPP9 isoform 2 (UniProt Q86TI2) | inactive: 0.049
DPH7 (UniProt Q9BTV6) | inactive: -0.033
EDEM3 (UniProt Q9BZQ6) | inactive: 0.135

Compound: CNc1nc(-c2ccc3c(N)n[nH]c3c2)cc(N2C[C@@H](C(=O)NC3CCCCC3)CC[C@H]2C)n1
Experiment: as above
Method in brief: as §1

Target | log2 fold change
EDEM1 (UniProt Q92611) | inactive: -0.146
EBP (UniProt Q15125) | inactive: -0.096
DYNLL1 (UniProt P63167) | inactive: 0.026
DPH6 (UniProt Q7L8W6) | inactive: -0.031
ECSIT (UniProt Q9BQ95) | inactive: -0.045
DNAJC9 (UniProt Q8WXX5) | inactive: -0.046
DNAJC2 (UniProt Q99543) | inactive: 0.061
ECI1 (UniProt P42126) | inactive: -0.05
DNM1L isoform 6 (UniProt O00429) | inactive: -0.021
DPF2 (UniProt Q92785) | inactive: -0.082
DNAJB4 (UniProt Q9UDY4) | inactive: -0.038
ECHDC1 (UniProt Q9NTX5) | inactive: -0.047
DTD1 (UniProt Q8TEA8) | inactive: -0.086
DR1 (UniProt Q01658) | inactive: -0.077
DPY30 (UniProt Q9C005) | inactive: 0.011
DNAJB6 (UniProt O75190) | inactive: -0.124
DOCK9 isoform 4 (UniProt Q9BZ29) | inactive: -0.037

Target | log2 fold change
DPP7 (UniProt Q9UHL4) | inactive: -0.032
DNASE2 (UniProt O00115) | inactive: -0.081
DUSP3 (UniProt P51452) | inactive: -0.015
DSG2 (UniProt Q14126) | inactive: -0.055
DNAJC17 (UniProt Q9NVM6) | inactive: 0.005
DPH2 (UniProt Q9BQC3) | inactive: -0.036
EBAG9 isoform 2 (UniProt O00559) | inactive: -0.019
DUT (UniProt P33316) | inactive: -0.004
DNPH1 (UniProt O43598) | inactive: -0.037
DPAGT1 (UniProt Q9H3H5) | inactive: 0.033
DPH1 (UniProt Q9BZG8) | inactive: -0.011
DOCK7 (UniProt Q96N67) | inactive: -0.021
DPY19L4 (UniProt Q7Z388) | inactive: 0.27
DPP9 isoform 2 (UniProt Q86TI2) | inactive: 0.071
DPH7 (UniProt Q9BTV6) | inactive: 0.031
EDEM3 (UniProt Q9BZQ6) | inactive: -0.084

Compound: COC(=O)N[C@@H](C)CNc1nccc(-c2cn(C(C)C)nc2-c2cc(Cl)cc(NS(C)(=O)=O)c2F)n1 [encorafenib]
Experiment: as above
Method in brief: as §1

Target | log2 fold change
EDEM1 (UniProt Q92611) | inactive: -0.046
EBP (UniProt Q15125) | inactive: -0.018
DYNLL1 (UniProt P63167) | inactive: -0.02
DPH6 (UniProt Q7L8W6) | inactive: 0.05
ECSIT (UniProt Q9BQ95) | inactive: -0.001
DNAJC9 (UniProt Q8WXX5) | inactive: 0.011
DNAJC2 (UniProt Q99543) | inactive: 0.225
ECI1 (UniProt P42126) | inactive: -0.01
DNM1L isoform 6 (UniProt O00429) | inactive: 0.006
DPF2 (UniProt Q92785) | inactive: 0.007
DNAJB4 (UniProt Q9UDY4) | inactive: 0.042
ECHDC1 (UniProt Q9NTX5) | inactive: -0.018
DTD1 (UniProt Q8TEA8) | inactive: 0
DR1 (UniProt Q01658) | inactive: 0.008
DPY30 (UniProt Q9C005) | inactive: -0.04
DNAJB6 (UniProt O75190) | inactive: -0.074
DOCK9 isoform 4 (UniProt Q9BZ29) | inactive: -0.001

Target | log2 fold change
DPP7 (UniProt Q9UHL4) | inactive: -0.002
DNASE2 (UniProt O00115) | inactive: -0.016
DUSP3 (UniProt P51452) | inactive: 0.02
DSG2 (UniProt Q14126) | inactive: -0.01
DNAJC17 (UniProt Q9NVM6) | inactive: 0.03
DPH2 (UniProt Q9BQC3) | inactive: 0
EBAG9 isoform 2 (UniProt O00559) | inactive: 0.037
DUT (UniProt P33316) | inactive: -0.016
DNPH1 (UniProt O43598) | inactive: -0.003
DPAGT1 (UniProt Q9H3H5) | inactive: -0.038
DPH1 (UniProt Q9BZG8) | inactive: 0.021
DOCK7 (UniProt Q96N67) | inactive: 0.022
DPY19L4 (UniProt Q7Z388) | inactive: -0.097
DPP9 isoform 2 (UniProt Q86TI2) | inactive: -0.026
DPH7 (UniProt Q9BTV6) | inactive: 0.019
EDEM3 (UniProt Q9BZQ6) | inactive: -0.047
